Assay results reported in PubChem BioAssay AID1487 (National Center for Advancing Translational Sciences (NCATS), 2009).
“And” between values parts separate entries of the source, which are not always exact repeats. Equal values may be shown once. Some of the results follow. The main result of the screen is listed elsewhere. These columns were measured beside it and carry no call. Most of these compounds were active or inconclusive in the main read-out, so they are no random draw. The note in brackets gives the kind of curve behind each potency; many fits are weak.

Assay: qHTS Assay for Modulators of Lamin A Splicing
Conditions: HeLa LMNA splicing GFP/RFP minigene ratio, 48 h
Outline: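 S3 HeLa cells stably expressing lamin A-EGFP splicing minigene plus DsRed2, 600 cells/well, 48 h compound exposure at 37C. Laser-scanning cytometry; analysed as GFP (500-530 nm)/RFP (575-640 nm) total intensity ratio; 0.5% DMSO vehicle.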

[1] = measured here: RFP viability control channel
[2] = measured here: GFP splicing reporter channel

SMILES | AC50 [1] | AC50 [2]
C=CCN1C(=O)/C(=C/c2ccc(N3CCOCC3)o2)C(=O)NC1=S | 0.02 µM [falling, full curve] | 
O=[N+]([O-])c1cc(F)c(N2CCCC2)cc1N1CCNCC1 | 0.794 µM [falling, full curve, poor fit] | 
Cc1nc2ccccc2c(=O)n1-c1ccccc1[N+](=O)[O-] |  | 0.0316 µM [rising, full curve, poor fit]
CC[C@H]1CN2CCc3cc(OC)c(OC)cc3[C@@H]2C[C@@H]1C[C@H]1NCCc2cc(OC)c(OC)cc21 | 0.02 µM [falling, full curve] | 15.8 nM [falling, full curve] and 1 µM [falling, full curve]
CCCCn1c(NC(=O)c2ccc(Br)o2)c(C(=O)OCC)c2nc3ccccc3nc21 |  | 12.6 µM [rising, single point]
COc1cc([C@@H]2c3cc4c(cc3[C@H](O)[C@H]3COC(=O)[C@H]23)OCO4)cc(OC)c1OC | 31.6 nM [rising, full curve] and 28.2 nM [rising, full curve] | 126 nM [rising, full curve] and 10 µM [falling, partial curve]
CCCNS(=O)(=O)c1ccc(OCC(=O)N2CCN(Cc3ccccc3)CC2)cc1 | 11.2 µM [rising, single point] | 
CN1CC[C@@]23CCCC[C@@H]2[C@@H]1Cc1ccc(O)cc13 | 35.5 µM [rising, single point] | 
CN=C(NC#N)NCCSCc1nc[nH]c1C | 5.01 µM [rising, single point] | 
Cc1sc(NC(=O)Cn2c(=O)oc3ccccc32)nc1-c1ccc(Cl)cc1 | 7.94 µM [rising, partial curve] | 
N#Cc1ccc(Cn2cc(C(=O)c3ccco3)c3ccccc32)cc1 | 35.5 µM [rising, single point] | 35.5 µM [rising, single point]
CCOC(=O)CNC(=O)CNC(=O)C(Cc1ccc(N(CCCl)CCCl)cc1)NC(C)=O (configuration not stated) |  | 35.5 µM [falling, partial curve, poor fit]
CCNC(C)Cc1cccc(C(F)(F)F)c1 (configuration not stated) |  | 35.5 µM [falling, single point]
Cc1ccc(C(=O)NC2CCN(S(=O)(=O)c3ccc(C)cc3)CC2)cc1 | 35.5 µM [falling, partial curve, poor fit] | 
COCCOC(=O)c1c(C)oc2ccc(OC(=O)N(C)C)cc12 | 0.141 µM [falling, full curve, poor fit] | 
O=C(Cn1cnc2ccccc2c1=O)NCCC(=O)N1CCC2(CC1)OCCO2 |  | 4.47 µM [rising, partial curve]
CS(=N)(=O)CC[C@H](N)C(=O)O (some centres not stated) |  | 35.5 µM [rising, partial curve, poor fit]
Cc1cccc(-n2c(/C=C/c3ccc([N+](=O)[O-])o3)nc3ccccc3c2=O)c1 |  | 35.5 µM [falling, single point]
Cc1cccc(N2C(=O)NC(=O)/C(=C\c3cccn3-c3ccc(Cl)cc3)C2=O)c1 | 31.6 µM [falling, single point] | 15.8 µM [falling, single point]
CN(C)c1ccc(CN2CCc3nc(N4CCN(c5ccccn5)CC4)ncc3C2)cc1 |  | 10 µM [falling, partial curve, poor fit]
C1CCC(NC2CCCCC2)CC1 | 2.82 µM [falling, partial curve] | 11.2 µM [rising, partial curve, poor fit]
Cc1oc(-c2ccccc2Cl)nc1CN1C(=O)CN=C(c2ccccc2)c2ccccc21 | 17.8 µM [rising, partial curve, poor fit] | 11.2 µM [rising, partial curve, poor fit]
N#CC(C(=O)C12CC3CC(CC(C3)C1)C2)c1nc2ccccc2[nH]1 (configuration not stated) | 35.5 µM [rising, single point] | 31.6 µM [rising, single point]
Cc1cc(C)nc(N2Cc3ccccc3C2=N)n1 | 12.6 µM [rising, single point] | 
COc1ccc2c(c1)/C(=C/c1cnc[nH]1)C(=O)N2 | 11.2 µM [falling, partial curve] | 11.2 µM [falling, partial curve]
Cc1cc(C(=O)Cn2nnc(-c3ccc(Cl)cc3)n2)c(C)n1-c1ccccc1 | 12.6 µM [rising, partial curve] | 12.6 µM [rising, partial curve]

SMILES | AC50 [1] | AC50 [2]
Cn1cc(C(=O)Cc2ccccc2)c2ccccc21 | 15.8 µM [rising, single point] | 
OC(c1ccc(F)cc1)C(c1ccccc1)N1CCOCC1 (configuration not stated) |  | 3.55 µM [rising, partial curve, poor fit]
CNC(=O)Oc1ccc(-c2cn3cc(C)ccc3n2)cc1 | 10 µM [rising, single point] | 
Oc1c(Cl)c(Cl)c(Cl)c(Cl)c1Cl | 20 µM [falling, single point] | 14.1 µM [falling, single point]
COC(=O)C1=C(C)NC(C)=C(C(=O)OC)C1c1ccccc1[N+](=O)[O-] | 22.4 µM [falling, single point] and 1.12 µM [falling, partial curve, poor fit] | 17.8 µM [falling, partial curve, poor fit]
CC(C)c1oc(=O)cc2c1[C@@H](O)[C@H]1OC(=O)[C@@]3(C)C[C@@H](O)[C@@H](O)[C@@]2(C)C13 (some centres not stated) |  | 0.224 µM [falling, full curve]
Cc1cccn2c(=O)cc(COc3cccc(NC(=O)COc4ccc(F)cc4)c3)nc12 | 11.2 µM [falling, partial curve] | 14.1 µM [falling, partial curve]
Ic1ccccc1CNC1C2CCN(CC2)C1C(c1ccccc1)c1ccccc1 (configuration not stated) | 35.5 µM [falling, partial curve, poor fit] | 31.6 µM [falling, partial curve, poor fit]
CC1(C)C(C=C(Cl)Cl)C1C(=O)OCc1cccc(Oc2ccccc2)c1 (configuration not stated) | 22.4 µM [falling, single point] | 25.1 µM [falling, single point]
O=C1N(c2cccc(Cl)c2)C(c2cccnc2)N2CCCN12 (configuration not stated) | 5.62 µM [rising, single point] | 5.62 µM [rising, single point]
CCC(=NCc1ccco1)c1c(O)n(-c2ccccc2)c(=O)[nH]c1=O | 28.2 µM [rising, single point] | 
Cc1ccc(NC(=O)Nc2ccc3nc(N4CCN(C)CC4)cc(C)c3c2)cc1F | 12.6 µM [rising, partial curve] | 
NP(=O)(Oc1ccc(Cl)cc1)Oc1ccc(Cl)cc1 |  | 35.5 µM [falling, single point]
O=c1[nH]cc(F)c(=O)[nH]1 | 11.2 nM [rising, full curve, poor fit] and 126 nM [rising, full curve, poor fit] and 1.26 µM [rising, full curve] | 2.82 µM [rising, full curve] and 4.47 nM [falling, full curve, poor fit] and 20 nM [falling, full curve]
O=C(c1cc2nc(-c3ccccc3)cc(-c3ccccc3)n2n1)N1CCC2(CC1)OCCO2 | 14.1 µM [rising, partial curve] | 
CCC(COC(=O)c1cc(OC)c(OC)c(OC)c1)(c1ccccc1)N(C)C (configuration not stated) | 0.00891 µM [falling, full curve, poor fit] | 8.91 µM [falling, partial curve, poor fit]
CCn1ccnc1CN1CCCC(C(=O)c2cc(C)c(OC)c(C)c2)C1 (configuration not stated) | 12.6 µM [falling, partial curve, poor fit] | 20 µM [falling, partial curve]
COc1cc2[nH]c(=O)n(-c3ccc(C)cc3)c(=O)c2cc1OC | 1 µM [falling, partial curve] | 3.98 µM [falling, partial curve]
O=C(C1CC(c2ccc(Cl)c(Cl)c2)=NO1)N1CCC2(CC1)OCCO2 (configuration not stated) | 0.398 µM [rising, full curve, poor fit] | 
CCC(=O)N1N=C2C3CCN(CC3)C2C1c1ccc(C)cc1 (configuration not stated) | 0.141 µM [falling, full curve, poor fit] | 0.112 µM [falling, full curve]
CCOC(=O)/C(=N\Nc1ccccc1)N1CC1 | 7.08 µM [rising, partial curve, poor fit] | 
Cc1cccc(NC(=O)C2CCCN(S(=O)(=O)c3ccc4c(c3)oc(=O)n4C)C2)c1 (configuration not stated) | 0.0501 µM [falling, full curve, poor fit] | 
CC(C)NS(=O)(=O)c1ccc(OCC(=O)N2CCN(Cc3ccccc3)CC2)c(Cl)c1 | 17.8 µM [rising, partial curve, poor fit] | 
Cc1ccc(O)c(C(=O)c2cc(C(=O)NCCC(C)C)c(=O)n(CCC(C)C)c2)c1 | 35.5 µM [rising, single point] | 
FC(F)(F)c1ccc2c(c1)ncn2C1CCN(Cc2nnnn2C2CCCCC2)CC1 | 17.8 µM [rising, single point] | 12.6 µM [rising, single point]

A portion of the results above, for reference:
SMILES | AC50 [1] | AC50 [2]
O=C(c1cc2nc(-c3ccccc3)cc(-c3ccccc3)n2n1)N1CCC2(CC1)OCCO2 | 14.1 µM [rising, partial curve] | 
CCC(COC(=O)c1cc(OC)c(OC)c(OC)c1)(c1ccccc1)N(C)C (configuration not stated) | 0.00891 µM [falling, full curve, poor fit] | 8.91 µM [falling, partial curve, poor fit]
